# Source: paper PMC6558007
# These are yes or no findings as the source states them, for the method shown. In cells and extracts the contact can be indirect. These calls come from enrichment with a bait or labelling near it, and not all partners need be listed.
# Biological target: HaGland5-FLAG (Heterodera avenae)
# Experiment: affinity purification with mass spectrometry; whole protein of 14-day transgenic A. thaliana seedlings expressing HaGland5-FLAG (Col-0 as control); complexes captured by FLAG antibody; Q Exactive
binder,measurement,value
"AtEMB3003 protein from A. thaliana (endogenous) (protein, UniProt Q9C8P0 32-465) IIPIQAKIREIFMPALSSTMTEGKIVSWVKSEGDKLNKGESVVVVESDKADMDVETFYDGYLAAIMVEEGGVAPVGSAIALLAETEDEIADAKAKASGGGGGGDSKAPPASPPTAAVEAPVSVEKKVAAAPVSIKAVAASAVHPASEGGKRIVASPYAKKLAKELKVELAGLVGSGPMGRIVAKDVEAVAAGGGVQAAVAVKEVVAAPGVELGSVVPFTTMQGAVSRNMVESLGVPTFRVGYTISTDALDALYKKIKSKGVTMTALLAKATALALAKHPVVNSSCRDGNSFVYNSSINVAVAVAIDGGLITPVLQNADKVDIYSLSRKWKELVDKARAKQLQPQEYNTGTFTLSNLGMFGVDRFDAILPPGTGAIMAVGASQPSVVATKDGRIGMKNQMQVNVTADHRVIYGADLAQFLQTLASIIEDPKDLTF",binding,binds
